Test results as given in PMC6588571.
Results are given in words; binding and its absence hold for the method and conditions named. Some entries that bind do so weakly or less than the wild type. Tags and fused reporters may be left off the sequences shown. Each block holds one binder with its values, some of them ahead of it.

Key:
[1] = molecular target: T1, full-length Hrr25 (494 aa) fused to the Gal4 DNA-binding domain (S. cerevisiae) (UniProt P29295); test: two-hybrid; baits fused to the GAL4 DNA-binding domain, preys fused to the GAL4 activation domain, co-transformed into reporter strain PJ69-4A; ten-fold serial dilutions spotted on SDC-Trp-Leu, SDC-Trp-Leu-His (growth: weak interaction) and SDC-Trp-Leu-Ade (growth: strong interaction)
T1 sequence: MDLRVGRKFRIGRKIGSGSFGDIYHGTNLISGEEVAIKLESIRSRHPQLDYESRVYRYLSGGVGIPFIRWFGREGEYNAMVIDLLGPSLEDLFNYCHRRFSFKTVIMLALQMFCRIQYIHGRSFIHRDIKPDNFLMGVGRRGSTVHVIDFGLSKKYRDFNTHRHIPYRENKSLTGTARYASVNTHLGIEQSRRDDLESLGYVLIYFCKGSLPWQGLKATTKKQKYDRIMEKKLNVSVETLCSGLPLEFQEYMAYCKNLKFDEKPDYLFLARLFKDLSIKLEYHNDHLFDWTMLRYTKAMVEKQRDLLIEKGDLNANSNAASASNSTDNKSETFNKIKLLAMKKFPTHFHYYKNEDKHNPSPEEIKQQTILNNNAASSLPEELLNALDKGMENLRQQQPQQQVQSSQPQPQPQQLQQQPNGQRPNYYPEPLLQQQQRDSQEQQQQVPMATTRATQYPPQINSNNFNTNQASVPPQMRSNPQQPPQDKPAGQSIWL

[2] = molecular target: T2, Enp1 fused to the Gal4 DNA-binding domain (S. cerevisiae) (UniProt P38333); test: as above
T2 sequence: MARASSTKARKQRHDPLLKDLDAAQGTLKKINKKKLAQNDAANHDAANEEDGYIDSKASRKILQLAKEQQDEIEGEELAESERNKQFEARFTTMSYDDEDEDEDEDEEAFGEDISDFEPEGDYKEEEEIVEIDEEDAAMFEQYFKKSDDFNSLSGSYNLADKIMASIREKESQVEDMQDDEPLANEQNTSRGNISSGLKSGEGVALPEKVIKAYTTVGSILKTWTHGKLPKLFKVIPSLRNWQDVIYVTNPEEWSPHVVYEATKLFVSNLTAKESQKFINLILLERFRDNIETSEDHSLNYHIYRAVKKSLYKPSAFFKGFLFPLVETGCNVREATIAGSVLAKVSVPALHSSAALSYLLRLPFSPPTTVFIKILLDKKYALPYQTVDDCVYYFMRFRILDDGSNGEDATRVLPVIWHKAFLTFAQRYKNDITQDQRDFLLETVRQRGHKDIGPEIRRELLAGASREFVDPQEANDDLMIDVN

[3] = molecular target: T3, C-terminally TAP-tagged Tsr1 (S. cerevisiae), Q07381; test: cryo-EM structure; pre-40S particles from rps20Δloop cells purified via Tsr1-TAP (lysis buffer with 5 mM MgCl2) and a 10–30% sucrose gradient; single particle analysis, classes C1-S20Δloop (3.47 Å) and C2-S20Δloop (3.79 Å); the partners stand in one ribonucleoprotein particle; details: remark: other sources report otherwise
T3 chain: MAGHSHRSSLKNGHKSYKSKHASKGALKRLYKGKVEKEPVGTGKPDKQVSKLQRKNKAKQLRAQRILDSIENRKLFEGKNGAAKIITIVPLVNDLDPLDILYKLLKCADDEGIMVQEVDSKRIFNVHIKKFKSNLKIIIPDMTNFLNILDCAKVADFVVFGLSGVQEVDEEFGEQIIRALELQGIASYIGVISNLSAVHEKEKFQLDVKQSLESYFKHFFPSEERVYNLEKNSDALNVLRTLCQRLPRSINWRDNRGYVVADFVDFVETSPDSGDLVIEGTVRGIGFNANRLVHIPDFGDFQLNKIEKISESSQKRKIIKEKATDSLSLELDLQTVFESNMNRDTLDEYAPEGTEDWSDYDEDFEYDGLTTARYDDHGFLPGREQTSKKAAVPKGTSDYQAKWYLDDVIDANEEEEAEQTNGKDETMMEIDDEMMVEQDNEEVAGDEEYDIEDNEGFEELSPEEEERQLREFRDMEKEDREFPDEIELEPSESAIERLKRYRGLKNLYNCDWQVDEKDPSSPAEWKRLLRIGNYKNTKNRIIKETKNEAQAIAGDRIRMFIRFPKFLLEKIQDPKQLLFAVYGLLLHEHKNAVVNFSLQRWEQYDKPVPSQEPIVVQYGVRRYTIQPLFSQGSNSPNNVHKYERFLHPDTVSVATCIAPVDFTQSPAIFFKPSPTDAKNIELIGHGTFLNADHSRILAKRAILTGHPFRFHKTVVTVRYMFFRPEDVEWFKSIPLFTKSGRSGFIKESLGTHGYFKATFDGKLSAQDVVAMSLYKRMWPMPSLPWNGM

[4] = molecular target: T4, Ltv1 fused to the Gal4 activation domain (S. cerevisiae) (UniProt P34078); test: two-hybrid; Y2H strains with Hrr25(1–394).K38R-BD and Ltv1 constructs-AD, transformed with empty plasmid or a URA3 plasmid for ENP1 overexpression under the ADH1 promoter; spotted on SDC-Leu-Trp-Ura, SDC-His-Leu-Trp-Ura and SDC-Ade-Leu-Trp-Ura
T4 sequence: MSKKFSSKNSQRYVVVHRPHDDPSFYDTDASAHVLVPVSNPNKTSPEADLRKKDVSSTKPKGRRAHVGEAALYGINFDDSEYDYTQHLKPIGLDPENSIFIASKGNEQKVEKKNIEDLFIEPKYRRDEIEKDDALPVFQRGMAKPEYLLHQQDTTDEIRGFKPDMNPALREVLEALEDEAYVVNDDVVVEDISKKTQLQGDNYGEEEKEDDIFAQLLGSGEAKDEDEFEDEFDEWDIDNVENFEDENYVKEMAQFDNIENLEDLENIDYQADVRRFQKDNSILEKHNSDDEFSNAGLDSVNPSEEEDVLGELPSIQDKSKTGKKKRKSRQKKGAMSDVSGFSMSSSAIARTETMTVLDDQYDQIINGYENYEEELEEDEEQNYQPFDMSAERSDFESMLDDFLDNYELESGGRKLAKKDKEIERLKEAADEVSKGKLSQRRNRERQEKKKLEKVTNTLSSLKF

binding [1]: binds weakly
B1: r-protein Rps15 (protein, UniProt Q01855 1-142)
chain: MSQAVNAKKRVFKTHSYRGVDLEKLLEMSTEDFVKLAPARVRRRFARGMTSKPAGFMKKLRAAKLAAPENEKPAPVRTHMRNMIIVPEMIGSVVGIYNGKAFNQVEIRPEMLGHYLGEFSITYTPVRHGRAGATTSRFIPLK

binding [2]: binds
B2: Ltv1 fragment aa 218–271 fused to the Gal4 activation domain (domain or fragment, UniProt P34078 218-271)
chain: GSGEAKDEDEFEDEFDEWDIDNVENFEDENYVKEMAQFDNIENLEDLENIDYQA

binding [3]: binds
B3: Dim1 (endogenous), P41819 1-318 (enzyme)
chain: MGKAAKKKYSGATSSKQVSAEKHLSSVFKFNTDLGQHILKNPLVAQGIVDKAQIRPSDVVLEVGPGTGNLTVRILEQAKNVVAVEMDPRMAAELTKRVRGTPVEKKLEIMLGDFMKTELPYFDICISNTPYQISSPLVFKLINQPRPPRVSILMFQREFALRLLARPGDSLYCRLSANVQMWANVTHIMKVGKNNFRPPPQVESSVVRLEIKNPRPQVDYNEWDGLLRIVFVRKNRTISAGFKSTTVMDILEKNYKTFLAMNNEMVDDTKGSMHDVVKEKIDTVLKETDLGDKRAGKCDQNDFLRLLYAFHQVGIHFS

binding [4]: binds
B4: Enp1 overexpressed under control of the ADH1 promoter (protein, UniProt P38333 1-483)
chain: T2 sequence

binding [2]: binds
B5: Ltv1 fragment aa 354–412 fused to the Gal4 activation domain (domain or fragment, UniProt P34078 354-412)
chain: MTVLDDQYDQIINGYENYEEELEEDEEQNYQPFDMSAERSDFESMLDDFLDNYELESGG

binding [3]: binds
B6: Rps3 (endogenous), P05750 1-240 (protein)
chain: MVALISKKRKLVADGVFYAELNEFFTRELAEEGYSGVEVRVTPTKTEVIIRATRTQDVLGENGRRINELTLLVQKRFKYAPGTIVLYAERVQDRGLSAVAQAESMKFKLLNGLAIRRAAYGVVRYVMESGAKGCEVVVSGKLRAARAKAMKFADGFLIHSGQPVNDFIDTATRHVLMRQGVLGIKVKIMRDPAKSRTGPKALPDAVTIIEPKEEEPILAPSVKDYRPAEETEAQAEPVEA
